The other results are listed elsewhere or left out. Shown are side measurements of this screen, not its main read-out; they come without a call. The list favours compounds with an active or inconclusive main result. Potencies come from curve fits of mixed quality, noted in brackets.
Assay: qHTS Assay for Identifying the Cell-Membrane Permeable IMPase Inhibitors
Conditions: CHO-M1 cells, IP1 accumulation, HTRF TR-FRET ratio; measured here: donor channel 620 nm AC50

SMILES	AC50
CC(=O)N1CCc2cc(Br)cc(S(=O)(=O)NCCCN3CCC(C)CC3)c21	31.6 µM [rising, single point]
Cc1ccc(SCCCn2cncn2)cc1	2.51 µM [rising, full curve, poor fit]
CC1(C)Cc2cccc(OCC(N)=O)c2O1	31.6 µM [falling, single point]
CC1CCN(C(=O)c2ccc3c(c2NCCO)C(=O)c2ccccc2C3=O)CC1	1.58 µM [falling, partial curve]
O=c1c2ccccc2oc2cc(O)c(C3COCC(CO)C(O)C(O)C3O)c(O)c12 (stereo not drawn)	12.6 µM [falling, partial curve]
CCCC(=O)c1ccc(N2CCN(C(=O)c3ccccc3Br)CC2)c(F)c1	31.6 µM [falling, single point]
CCN(CC)c1ccc(C=N/C(C#N)=C(\N)C#N)cc1	20 µM [falling, single point]
O=C(O)CCCC(=O)Nc1ccc(N2CCCC2)cc1	1.58 µM [falling, partial curve]
Cc1cccc[n+]1C1C(c2ccccc2)C(C#N)=C(C(=C=[N-])C#N)NC1(O)C1CC1 (stereo not drawn)	12.6 µM [rising, single point]
O=C(CCC1CCCCC1=O)c1ccccc1 (stereo not drawn)	0.0398 µM [rising, full curve, poor fit]
CCOC(=O)c1sc2ncn(CC(=O)N(CC)CC)c(=O)c2c1C	5.01 µM [falling, single point]
CCOC(=O)c1cnc(-c2ccccc2)[nH]c1=O	0.0631 µM [rising, partial curve, poor fit]
O=C(NC1CCCC1)c1cccnc1N1CCCCCC1	0.126 µM [rising, full curve, poor fit]
O=C(/C=C/c1ccc(F)cc1)N1CCCN(C(=O)/C=C/c2ccc(F)cc2)CC1	0.0562 µM [falling, full curve, poor fit]
Cc1ccc(OCCn2cc(C(=O)c3cccs3)c3ccccc32)cc1	0.0631 µM [falling, full curve]
COc1ccc(OC)c(S(=O)(=O)N(C)CC(=O)Nc2ccc3c(c2)OCCO3)c1	0.355 µM [falling, full curve, poor fit]
COCCN(C(=O)CCC(=O)Nc1ccccn1)C(C(=O)NCCC(C)C)c1ccc(OC)cc1 (stereo not drawn)	0.0316 µM [rising, full curve, poor fit]
CCC1=Nc2cc(C(=O)NCCc3ccc(OC)c(OC)c3)ccc2Sc2ccccc21	0.0562 µM [falling, full curve]
Cc1ccc(CNC(=O)C(NS(=O)(=O)c2cccs2)C(C)C)cc1 (stereo not drawn)	35.5 µM [falling, single point]
CCOc1ccc(CCNC(=O)c2cccc(Nc3nc4ccccc4nc3-n3nc(C)cc3C)c2)cc1OCC	5.01 µM [falling, single point]
Cc1ccc(C)n1-c1ccc(-c2nnc3n2CCCCC3)s1	15.8 µM [rising, single point]
CCOC(=O)CSc1nnc(C2CCCCC2)n1C	31.6 µM [falling, single point]

SMILES	AC50
Cc1ccc(-c2nc3cc(NC(=O)c4cc5ccccc5o4)ccc3o2)cc1Cl	22.4 µM [falling, single point]
O=C(Nc1ccc(Br)cc1F)c1sccc1-n1cccc1	6.31 µM [falling, single point]
CCC(=O)NC(Nc1sc2c(c1C(=O)OC)CCN(C)C2)(C(F)(F)F)C(F)(F)F	0.2 µM [falling, full curve]
Cc1cccn2c(=O)c3cc(C(=O)NCc4cccnc4)c(=N)n(C(C)C)c3nc12	31.6 µM [rising, partial curve, poor fit]
CN(C)/C=N/c1ncnc2c1cnn2-c1ccc(C(F)(F)F)cn1	5.01 µM [falling, single point]
COCc1nc2sc(C)c(C)c2c(=O)[nH]1	31.6 µM [rising, single point]
O=C(Nc1ccccc1Cl)NC1(C(=O)N2CCCCC2)CCCCC1	12.6 µM [falling, single point]
Cc1cccc(NC(=O)CSc2nc(-c3cccs3)cc(C(F)(F)F)c2C#N)c1C	31.6 µM [rising, single point]
Cc1cccc(NC(=O)CSc2nnc(-c3ccccc3Br)o2)c1C	1.58 µM [falling, full curve, poor fit]
COC(=O)c1cc(Br)c(=O)n(-c2cc(C)on2)c1	25.1 µM [rising, single point]
COc1cc(/C=C/C(=O)c2c(O)ccc3c(C)cc(=O)oc23)ccc1O	35.5 µM [falling, single point]
Cc1cc(=O)oc2c(CN3CCCCC3)c(O)c(Cl)cc12	12.6 µM [rising, partial curve]
Cc1c(/C=C/C(=O)c2ccc(Cl)s2)cnn1C	1 µM [falling, full curve]
O=C(O)CCCNS(=O)(=O)c1ccc(F)cc1	0.0316 µM [rising, full curve, poor fit]
CCOC(=O)C(N)CSC1CC(=O)N(c2ccc(C(=O)OC)cc2)C1=O (stereo not drawn)	0.0158 µM [rising, full curve, poor fit]
CN(C)C(=S)NCc1ccccc1	2.51 µM [falling, full curve]
N/C(=N\OC(=O)c1ccccc1Cl)c1cccnc1	15.8 µM [rising, single point]
Clc1ccc(C2=Nn3c(nnc3-c3cccs3)SC2)cc1	5.01 µM [falling, single point]
COc1ccc(C(=O)NCCn2ccc3ccccc32)c(OC)c1	6.31 µM [rising, partial curve, poor fit]
CCOC(=O)N1CCN(c2cc(=O)n(C3CCCCC3)c(=O)[nH]2)CC1	0.0316 µM [rising, full curve, poor fit]
CC1=CC2=C(OC1N(C)C)c1cccc3cccc(c13)C2=O (stereo not drawn)	25.1 µM [rising, partial curve]

A draw from above in order of number of heavy atoms, high to low.
SMILES	AC50
Cc1cccc(NC(=O)CSc2nc(-c3cccs3)cc(C(F)(F)F)c2C#N)c1C	31.6 µM [rising, single point]
Cc1cc(=O)oc2c(CN3CCCCC3)c(O)c(Cl)cc12	12.6 µM [rising, partial curve]
Cc1c(/C=C/C(=O)c2ccc(Cl)s2)cnn1C	1 µM [falling, full curve]

— PubChem BioAssay AID901 (National Center for Advancing Translational Sciences (NCATS), 2007)
